# PubChem BioAssay AID1487 (National Center for Advancing Translational Sciences (NCATS), 2009)
# Where “and” joins values, the source holds several entries; their conditions need not be identical. Equal values may be shown once. The list shows a part of the results. The main result of the screen is listed elsewhere. These columns were measured beside it and carry no call. Most of these compounds were active or inconclusive in the main read-out, so they are no random draw. The note in brackets gives the kind of curve behind each potency; many fits are weak.
# Assay: qHTS Assay for Modulators of Lamin A Splicing
# Conditions: HeLa LMNA splicing GFP/RFP minigene ratio, 48 h
# Outline: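 S3 HeLa stable clones carrying a lamin A-EGFP splicing minigene plus DsRed2 were seeded at 600 cells/well in Opti-MEM with 2% FBS, pin-dosed and incubated 48 h at 37°C. Acumen cytometry (488 nm) gave the GFP/RFP total-intensity ratio.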
# [1] = measured here: GFP splicing reporter channel
# [2] = measured here: RFP viability control channel
Compound,AC50 [1],AC50 [2]
O=C(NCCc1ccccc1)C1CCN(c2nc3ccccc3o2)CC1,"20 µM [rising, single point]","35.5 µM [rising, single point]"
Cc1nc2ccc(Cl)cc2c(-c2ccccc2F)c1CC(=O)O,,"20 µM [rising, single point]"
Cc1c(Cl)cccc1NC(=O)c1nc(C)n(-c2cc(OC(C)C)c(Cl)cc2Cl)n1,"14.1 µM [rising, single point]","35.5 µM [rising, single point]"
O=C(c1ccc(Oc2ccc(C(F)(F)F)cc2[N+](=O)[O-])cc1)N1CCOCC1,"20 µM [rising, single point]","22.4 µM [rising, single point]"
CCCCC#Cc1ccccc1CC(=O)Nc1ccccc1,,"35.5 µM [rising, single point]"
CN1CC2(Cc3c1ccc1ccccc31)C(=O)OC(C)(C)OC2=O,"35.5 µM [rising, single point]","31.6 µM [rising, single point]"
COc1ccc(/C=N/NC(=O)C(=O)/C=C2\NC3(CCCC3)Cc3ccccc32)cc1,,"22.4 µM [rising, partial curve]"
Cc1ccc(C2=NC(C(F)(F)F)(C(F)(F)F)c3c(n(-c4ccc(F)cc4)c(=O)[nH]c3=O)N2)cc1,,"35.5 µM [rising, single point]"
CC1CCC(C(C)C)C(OC(=O)C[n+]2cc(-c3ccc(Cl)cc3)n3c2CCCCC3)C1 (stereo not given),,"31.6 µM [rising, single point]"
COc1cc(/C=N/OCC(=O)Nc2ccc(OC(F)F)cc2)ccc1OCc1ccccc1,,"35.5 µM [rising, single point]"
CC(C)[C@H](NC(=O)c1ccccc1Cl)C(=O)Nc1nc(-c2ccccn2)cs1,"35.5 µM [rising, single point]",
CCN(CCCCOC(=O)c1ccc(OC)c(OC)c1)[C@@H](C)Cc1ccc(OC)cc1,"0.316 µM [falling, partial curve]","0.000224 µM [rising, full curve, poor fit]"
Cc1cc(=O)oc2c(O)c(O)ccc12,,"3.16 µM [rising, full curve]"
CCOc1ccc(C(=O)CC(NCc2cccs2)C(=O)O)cc1 (stereo not given),,"12.6 µM [rising, partial curve]"
Cc1ccc(S(=O)(=O)N2CCN(CC(=O)NC3CCCc4ccccc43)CC2)c(C)c1 (stereo not given),,"35.5 µM [rising, single point]"
O=C(N/N=C/c1nn(-c2ccccc2)cc1-c1ccccc1)c1ccncc1,"0.501 µM [rising, partial curve]","8.91 µM [rising, partial curve]"
CC(=O)Nc1nc(CCC(C)C)cc2c1c(=O)oc1ccccc12,"2 µM [falling, partial curve, poor fit]","0.0224 µM [falling, full curve, poor fit]"
CC(C)CC(=O)NC(NC(=S)Nc1sc2c(c1C#N)CCCC2)C(Cl)(Cl)Cl (stereo not given),,"14.1 µM [falling, single point]"
COc1c(C)cc(C(=O)C2CCCN(C(=O)c3cc4nc(C)cc(C)n4n3)C2)cc1C (stereo not given),"17.8 µM [falling, partial curve, poor fit]","22.4 µM [falling, partial curve]"
CC(C)(C)c1ccc(C(O)CCCN2CCC(C(O)(c3ccccc3)c3ccccc3)CC2)cc1 (stereo not given),"12.6 µM [falling, partial curve, poor fit] and 14.1 µM [falling, partial curve, poor fit] and 8.91 µM [falling, partial curve, poor fit]","1 µM [falling, partial curve, poor fit]"
O=C(Nc1nc(-c2ccc(Br)cc2)ns1)c1ccc(F)cc1,,"15.8 µM [rising, single point]"
COC(=O)Nc1nnc(Cc2ccc(OC)cc2)s1,,"25.1 µM [rising, single point]"
CCN(CC)CCOC(=O)c1ccc(NC(=O)c2ccc(Cl)c(S(=O)(=O)N3CCCCCC3)c2)cc1,"11.2 µM [falling, single point]",
COc1cccc(CNC(=O)CN(C)S(=O)(=O)c2cnc[nH]2)c1,,"5.62 µM [falling, full curve, poor fit]"
Cn1nc(-c2ccc(Cl)cc2)c2cc(C(=O)NCCCN3CCCC3)sc21,,"31.6 µM [rising, single point]"
CCOc1cc(C(=O)Nc2ccc3c(c2)OCO3)ccc1OC(F)F,"12.6 µM [rising, partial curve]","31.6 µM [rising, single point]"
COC(=O)C1=C(C)N(Cc2ccco2)C(=O)N[C@@H]1c1cccc(C(F)(F)F)c1,"3.55 µM [rising, partial curve, poor fit]","12.6 µM [rising, partial curve]"

# Reprinted from the results shown (4 entries):
Compound,AC50 [1],AC50 [2]
COc1c(C)cc(C(=O)C2CCCN(C(=O)c3cc4nc(C)cc(C)n4n3)C2)cc1C (stereo not given),"17.8 µM [falling, partial curve, poor fit]","22.4 µM [falling, partial curve]"
CC(C)(C)c1ccc(C(O)CCCN2CCC(C(O)(c3ccccc3)c3ccccc3)CC2)cc1 (stereo not given),"12.6 µM [falling, partial curve, poor fit] and 14.1 µM [falling, partial curve, poor fit] and 8.91 µM [falling, partial curve, poor fit]","1 µM [falling, partial curve, poor fit]"
O=C(Nc1nc(-c2ccc(Br)cc2)ns1)c1ccc(F)cc1,,"15.8 µM [rising, single point]"
COC(=O)Nc1nnc(Cc2ccc(OC)cc2)s1,,"25.1 µM [rising, single point]"

# (continued)

Compound,AC50 [1],AC50 [2]
O=C(c1ccccc1)N1CCN(CC#Cc2ccccc2)CC1,"14.1 µM [rising, partial curve, poor fit]","1.78 µM [rising, partial curve, poor fit]"
CCN(CC)c1ccc(CNC23CN4CN(CN(C4)C2)C3)cc1,,"20 µM [rising, single point]"
CSc1nc(N)c2c3c(sc2n1)COC(C(C)C)C3 (stereo not given),,"5.62 µM [rising, single point]"
Cc1cc(C)n2nc(SCC(=O)NCc3ccco3)nc2n1,,"0.251 µM [falling, full curve, poor fit]"
COc1ccc(NC(=O)Cn2c(=O)oc3cc(S(=O)(=O)NC(C)C)ccc32)cc1OC,,"0.0224 µM [falling, full curve, poor fit]"
Cc1ccc(-n2cnc3cc(NCc4cccs4)ccc32)cc1,,"11.2 µM [rising, partial curve]"
O=C(NCC12CC3CC(CC(C3)C1)C2)c1cc2n(n1)C(C(F)(F)F)CC(c1ccco1)N2 (stereo not given),"35.5 µM [falling, single point]","35.5 µM [falling, partial curve]"
CNc1nc(SCc2ccccc2Cl)nc2c1CCCC2,,"10 µM [rising, partial curve, poor fit]"
Cc1noc(C)c1C(=O)Nc1sc(C)c(-c2ccccc2)c1C#N,,"7.08 µM [rising, partial curve, poor fit]"
c1ccc2c(Oc3ccc4c(c3)OCO4)nncc2c1,,"11.2 µM [rising, partial curve, poor fit]"
c1ccc2nc(C3=NCCN3)ccc2c1,"6.31 µM [falling, partial curve, poor fit]","5.62 µM [falling, single point]"
NC(=O)Cc1nc(-c2ccc(Br)cc2)cs1,,"31.6 µM [rising, single point]"
CCOC(=O)c1c(C)oc2nc(C)nc(Nc3cccc(OC)c3)c12,"2.24 µM [rising, full curve, poor fit]",
CCc1nnc(NC(=O)Cn2ccc(C(F)(F)F)n2)s1,,"3.98 µM [rising, single point]"
CCOc1cc2c(cc1OCC)C(c1ccccc1)N(c1ccc(C(=O)O)cc1)C(=O)C2 (stereo not given),"5.62 µM [falling, single point]","5.62 µM [falling, single point]"
CN1[C@@H]2CC[C@H]1CC(OC(c1ccccc1)c1ccccc1)C2 (stereo not given in full),"7.08 µM [rising, partial curve]","12.6 µM [rising, partial curve, poor fit]"
CN1C(=O)Cc2cc(S(=O)(=O)NCc3cccs3)ccc21,,"0.0316 µM [falling, full curve, poor fit]"
Cc1ccc2c(c1)C(=O)C(=O)N2CCOc1ccccc1,,"25.1 µM [falling, single point]"
S=C(Nc1ccccc1Cl)N(CCN1CCCCC1)Cc1ccco1,"35.5 µM [rising, single point]",
O=C(NCc1cccnc1)c1ccc(COc2ccccc2Cl)cc1,"6.31 µM [falling, single point]","31.6 µM [rising, single point]"
Cc1cc(-c2nnc(CCC(=O)NC(C)c3cccc4ccccc34)o2)no1 (stereo not given),"2.51 µM [falling, partial curve, poor fit]","0.2 µM [falling, full curve, poor fit]"
O=C1CCC(/C=C/c2ccccc2)=NN1Cc1ccc(F)cc1,"17.8 µM [falling, partial curve]","10 µM [falling, partial curve]"
O=C(CSc1nc(-c2cccs2)cc(C(F)(F)F)n1)Nc1cc(OCC(F)(F)F)cc([N+](=O)[O-])c1,"10 µM [rising, partial curve]","12.6 µM [rising, partial curve]"
O=C(Nc1cccc(S(=O)(=O)c2cccc(NC(=O)C3CC3)c2)c1)C1CC1,,"11.2 µM [rising, partial curve]"
Cc1ccc(S(=O)(=O)Nc2ccc(C(=O)Nc3ccncc3)cc2)cc1,"7.08 µM [rising, partial curve]","15.8 µM [rising, partial curve]"
CCOc1ccc(CNS(=O)(=O)c2ccc3[nH]c4c(c3c2)CCCC4)cc1OC,"10 µM [falling, partial curve]","10 µM [falling, partial curve]"
